Source: US12583818B2 (DAEGU-GYEONGBUK MEDICAL INNOVATION FOUNDATION, priority 2020, dated 2026)
The match of structure and compound is tentative.

Protein sequences, listed by entry. Tags and fused reporters are not part of them.
UniProt Q13526, whole entry: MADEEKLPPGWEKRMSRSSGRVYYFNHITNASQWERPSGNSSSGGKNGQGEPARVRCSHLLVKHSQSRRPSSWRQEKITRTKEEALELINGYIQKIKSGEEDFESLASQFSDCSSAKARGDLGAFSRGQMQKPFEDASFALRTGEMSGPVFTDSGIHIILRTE

Key:
[1] = tested on: A2780-SP cells (ovarian cancer stem cells); experiment: Sphere cell viability of A2780-SP cells (Cell-titer Glo); conditions: read-out: A2780-SP, culture for 8 days
Protocol: (§1) In order to confirm the inhibitory effect of the compound represented by formula 1 according to the present invention on the growth of MCF7, MCF7-SP, A2780 or A2780-SP cells, the following experiment was performed, and the results are shown in Tables 4 and 5 below.
On the other hand, A2780-SP cells (ovarian cancer stem cells) were plated in an Ultra-Low Attachment round bottom 96-well plate (corning) at the density of 1,500 viable cells per well, and cultured in cancer stem cell medium. The cancer stem cell medium is composed of the neurobasal medium supplemented with 20 ng/ml of bFGF, 10 ng/ml of EGF, […] of amphotericin B, HEPES, Glutamax and B27.
On the next day of culture, the cells were treated with the compound of Examples 57, and 69 to 144, followed by culture for 8 days. The medium containing the compound was added thereto once again on the 4th day. Sphere cell viability was evaluated by Cell-titer Glo (Promega, WC, USA), and luciferase activity was detected using a Tecan plate reader (Biocompare, USA).

Pin1 = Pin1 (Homo sapiens, UniProt Q13526); experiment: Evaluation of Pin1 enzyme inhibitory activity (Sensolyte Green Pin1 assay kit); conditions: read-out: Pin 1 inhibition; concentration at which the Pin1 enzyme activity is inhibited; 2 hours at room temperature, fluorescence 490 nm/520 nm
Protocol: In order to evaluate the Pin1 enzyme inhibitory activity of the compound represented by formula 1 according to the present invention, the following experiment was performed, and the results are shown in Table 2 below.
The enzyme activity of Pin1 protein was measured using a sensolyte Green Pin1 assay kit of Anaspec. The substrate was diluted in a buffer at a ratio of 1:100 to prepare a concentration of 1 μM, and the protein was diluted in a buffer at a ratio of 1:20 to prepare a concentration of 50 μg/ml. In addition, a developing solution was prepared by diluting thereof in a buffer at a ratio of 1:100.
The compound prepared in each example was diluted with DMSO and prepared at a concentration of 100 μM, 10 μM, 1 μM or 0.1 μM using a buffer. After sequentially adding 10 μl of the compound prepared in each Example diluted to four concentrations according to the above method, 10 μl of Pin1 protein, and 30 μl of the developing solution to each well of a black 96-well plate, […]. Finally, 50 μl of the substrate was added to each well of the plate, and the enzyme reaction was carried out after shaking the plate for 10 seconds.
Then, the plate was incubated for 2 hours at room temperature in an environment without light, and the fluorescence values at 490 nm/520 nm wavelength were measured using a device of Synergy Neo (Tecan). […]

[2] = tested on: A2780 cells (ovarian cancer cells); experiment: Cell viability of A2780 cells (Cell-titer Glo); conditions: read-out: A2780, culture for 3 days
Protocol: as §1
In addition, A2780 cells (ovarian cancer cells) were plated in a 96-well plate at the density of 3000 viable cells per well, and cultured in RPMI-1640 medium supplemented with 10% FBS and 1% penicillin/streptomycin.
On the next day of culture, the cells were treated with the compound of Examples 57, and 69 to 144, followed by culture for 3 days. Cell viability was evaluated by Cell-titer Glo (Promega, WC, USA), and luciferase activity was detected using a Tecan plate reader (Biocompare, USA).

SMILES: CN1CCN(c2ccnc(Nc3ccc(S(=O)(=O)NCCCc4c[nH]c5ccc(Cl)cc45)cc3)n2)CC1
- IC50 [1]: 1 to 10 µM
- IC50 (Pin1): < 1000 nM
- IC50 [2]: > 10 µM
